This passage reports binding results from paper PMC5371313.

Sequences of proteins named here, by UniProt entry; tags and fusion partners are left off.
UniProt P08670: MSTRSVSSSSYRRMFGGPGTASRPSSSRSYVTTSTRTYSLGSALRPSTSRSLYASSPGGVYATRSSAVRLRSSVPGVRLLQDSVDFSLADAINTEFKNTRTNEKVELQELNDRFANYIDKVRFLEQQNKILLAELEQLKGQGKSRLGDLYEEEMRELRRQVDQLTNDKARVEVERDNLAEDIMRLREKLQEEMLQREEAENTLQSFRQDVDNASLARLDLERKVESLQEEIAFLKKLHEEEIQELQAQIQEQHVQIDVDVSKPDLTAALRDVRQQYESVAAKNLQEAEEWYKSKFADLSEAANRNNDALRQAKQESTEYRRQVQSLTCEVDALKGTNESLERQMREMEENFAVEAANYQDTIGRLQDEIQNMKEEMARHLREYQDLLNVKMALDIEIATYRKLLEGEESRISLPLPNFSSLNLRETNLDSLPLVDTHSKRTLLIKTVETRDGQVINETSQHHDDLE
UniProt P35609: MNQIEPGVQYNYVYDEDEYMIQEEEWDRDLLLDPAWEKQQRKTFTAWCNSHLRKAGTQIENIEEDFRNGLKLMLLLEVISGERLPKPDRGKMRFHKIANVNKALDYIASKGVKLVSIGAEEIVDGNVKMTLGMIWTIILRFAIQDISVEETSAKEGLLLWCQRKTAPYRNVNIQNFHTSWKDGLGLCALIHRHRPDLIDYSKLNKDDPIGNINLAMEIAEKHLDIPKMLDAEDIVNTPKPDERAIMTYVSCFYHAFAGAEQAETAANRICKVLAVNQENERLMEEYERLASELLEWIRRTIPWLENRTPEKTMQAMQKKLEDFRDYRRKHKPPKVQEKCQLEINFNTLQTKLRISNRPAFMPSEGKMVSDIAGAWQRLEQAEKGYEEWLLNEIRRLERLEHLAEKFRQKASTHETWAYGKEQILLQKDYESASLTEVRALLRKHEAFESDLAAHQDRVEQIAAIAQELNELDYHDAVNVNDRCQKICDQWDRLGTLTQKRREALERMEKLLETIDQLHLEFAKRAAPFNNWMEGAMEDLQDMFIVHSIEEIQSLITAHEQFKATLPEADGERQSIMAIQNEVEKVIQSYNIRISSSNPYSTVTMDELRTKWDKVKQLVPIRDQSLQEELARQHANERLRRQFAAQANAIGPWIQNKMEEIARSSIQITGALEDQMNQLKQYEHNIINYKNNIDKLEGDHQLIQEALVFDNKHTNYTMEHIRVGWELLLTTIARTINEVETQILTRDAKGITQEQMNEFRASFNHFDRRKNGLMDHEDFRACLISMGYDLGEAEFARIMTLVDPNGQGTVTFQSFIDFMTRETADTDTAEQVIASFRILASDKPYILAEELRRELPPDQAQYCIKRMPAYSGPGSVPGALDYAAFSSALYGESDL

No constants are given. Whether binding was seen depends on the method and setting. In cells and extracts the contact can be indirect. These calls come from enrichment with a bait or labelling near it, and not all partners need be listed.

This test concerns the target T1, Annexin A1 (human (endogenous in 6-10B)) (UniProt P04083).
T1 sequence: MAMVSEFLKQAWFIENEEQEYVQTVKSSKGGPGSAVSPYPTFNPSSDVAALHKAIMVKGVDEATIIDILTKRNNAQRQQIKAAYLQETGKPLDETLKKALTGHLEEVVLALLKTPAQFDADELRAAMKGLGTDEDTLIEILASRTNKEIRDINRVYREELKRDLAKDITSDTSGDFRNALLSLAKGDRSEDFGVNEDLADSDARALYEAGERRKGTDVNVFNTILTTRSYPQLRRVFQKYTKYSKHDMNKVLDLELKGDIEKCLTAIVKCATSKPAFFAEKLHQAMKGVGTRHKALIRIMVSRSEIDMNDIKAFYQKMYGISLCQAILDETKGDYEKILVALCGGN
Description: affinity purification with mass spectrometry; 6-10B NPC cell lysate precleared, immunoprecipitated with anti-Annexin A1 antibody overnight, Protein G agarose 4 h at 4°C, washed three times with PBS; SDS-PAGE, in-gel trypsin digestion, 2DLC-MS/MS; non-immune IgG as negative control; three replicates.

As to Vimentin (from UniProt P08670 1-466), the binding result is “binds”.

As for α-actinin 2 (from UniProt P35609 1-894), the binding result was “binds”.

B1: S100A9 (protein, UniProt P06702 1-114)
chain: MTCKMSQLERNIETIINTFHQYSVKLGHPDTLNQGEFKELVRKDLQNFLKKENKNEKVIEHIMEDLDTNADKQLSFEEFIMLMARLTWASHEKMHEGDEGPGHHHKPGLGEGTP
Turning to B1, the binding result is on record as “binds”.
